Assay results published in PubChem BioAssay AID588497 (NMMLSC, 2011).
The campaign covered roughly 360,000 compounds. About 780 (0.22%) were called active. Inconclusive means that the source gave no clear call. Such entries were picked first, then a sample of the others. Cut-off read from the data, not from the text of the source: active = inhibition above about 35% (passing the limit was not always enough); inconclusive = no clear call, values can overlap the other calls.

Test system: Botulinum neurotoxin type F light chain protease (Clostridium botulinum)
Assay: BoNT/F light chain protease inhibitors, primary screen, biochemical, flow cytometry, MLPCN library (AID 588497); note: plate controls were buffer without enzyme for full effect and enzyme alone for no effect
Conditions: Multiplex microsphere protease cleavage assay, at 10 µM, hits give high values

Q: Which inhibition does the source give for `O=C1Nc2cccnc2N(C(=O)CCl)c2ccccc21` here?
A: inactive: -32.1%

Q: With `COC(=O)C(C)Oc1cc(C)ccc1COc1ccc(-n2nc(C)n(C(F)F)c2=O)cc1` (stereo not drawn) as the molecule, how does the inhibition read?
A: inconclusive: 0.4%

Q: Which inhibition does the source give for `N#CC1(NC(=O)CSc2nnc(COc3ccccc3F)n2N)CCCCC1` here?
A: inconclusive: 12.3%

Q: For `O=C(NN=Cc1cc(Br)c(O)c(Br)c1)c1ccccc1NS(=O)(=O)c1cccs1`, which inhibition is on record?
A: inactive: 9.1%

Q: Which inhibition does the source give for `O=c1c(C(c2ccc(F)cc2)c2c(O)nc3n(c2=O)CCS3)c(O)nc2n1CCS2` here?
A: inconclusive: 62.2%

Q: Which inhibition does the source give for `Cc1ccc(N2CC(C(=O)NC3CC3)CC2=O)cc1` (stereo not drawn) here?
A: inactive: 0.7%

Q: For `CC(C)(C)C(=O)CSc1ncnc2c1cnn2-c1ccccc1`, which inhibition is on record?
A: inconclusive: 20.9%

Q: For `O=C(c1cnn2ccccc12)N1CCCc2ccccc21`, which inhibition is on record?
A: inactive: -0.6%

Q: `O=C(NCC(c1cccnc1)N1CCN(c2ccccc2F)CC1)c1cccc(Cl)c1` (stereo not drawn) was tested. Which inhibition did it give?
A: inactive: 0.2%

Q: How did the inhibition turn out when `FC(F)(F)c1ccnc(Sc2n[nH]c(C(F)(F)F)n2)c1` was run?
A: inconclusive: -3.8%

Q: `COc1cc(OC)c(OC)cc1CNc1nnnn1C` was tested. Which inhibition did it give?
A: inconclusive: -33.2%

Q: How did the inhibition turn out when `Cn1cc(Cl)c(-c2nc3ccccc3[nH]2)n1` was run?
A: inconclusive: 4.2%

Q: `CCC1CCCCN1S(=O)(=O)c1ccc([N+](=O)[O-])cc1` (stereo not drawn) was tested. Which inhibition did it give?
A: inconclusive: 34.4%

Q: `S=c1c2c(nc3nc[nH]n13)CCC2` was tested. Which inhibition did it give?
A: inconclusive: 8.1%

Q: How did the inhibition turn out when `COCCn1c(SCC(=O)Nc2ccc(OC)cc2OC)nc2ccccc2c1=O` was run?
A: inconclusive: 2.3%

Q: `COC(=O)c1cccc(NC(=O)c2ccccc2)c1` was tested. Which inhibition did it give?
A: inconclusive: 111%

Q: How did the inhibition turn out when `S=c1nc[nH]c2c1sc1nc(-c3ccccc3)c3c(c12)CCCC3` was run?
A: inactive: 1.8%

Q: Which inhibition does the source give for `CCOC(=O)c1cnc(SC)nc1Oc1cccc(NC(=O)c2ccc(C)cc2)c1` here?
A: inconclusive: -13.4%

Q: `CCOC(=O)c1ccc(N=Cc2c(O)c3ccccc3oc2=O)cc1` was tested. Which inhibition did it give?
A: inconclusive: -15.8%

Q: Which inhibition does the source give for `O=c1[nH]nc(SCc2ccccc2Cl)n1-c1ccc2c(c1)OCCO2` here?
A: inconclusive: -24.8%

Q: `OC(CNCCNc1ncccc1C(F)(F)F)Cn1ccc2ccccc21` (stereo not drawn) was tested. Which inhibition did it give?
A: inconclusive: -39.3%

Q: With `O=C1NC(c2ccccc2)Oc2ccccc21` (stereo not drawn) as the molecule, how does the inhibition read?
A: inconclusive: -13.4%

Q: With `COC(=O)c1cc(C)sc1NC(=O)c1cccnc1` as the molecule, how does the inhibition read?
A: inactive: -9.7%

Q: With `Cc1c2ccccc2nc2ccccc12` as the molecule, how does the inhibition read?
A: inconclusive: -3.9%

Q: With `CC(=O)Nc1ccc2c(c1)nc(C)n2-c1ccccc1` as the molecule, how does the inhibition read?
A: inconclusive: 9.4%

Q: How did the inhibition turn out when `O=C(NNC(=O)c1ccccc1Cl)c1cc2cc(OC(F)(F)F)ccc2[nH]1` was run?
A: inconclusive: 1.7%

Q: `COc1ccc(N(C)S(=O)(=O)c2cccc(C(=O)OCC(=O)Nc3cc(C)ccc3OC)c2)cc1` was tested. Which inhibition did it give?
A: inactive: 2.5%

Q: For `CC(C)CCOP(=O)(c1ccc(N(C)C)cc1)C(O)c1ccccc1` (stereo not drawn), which inhibition is on record?
A: inconclusive: -11.2%

Q: Which inhibition does the source give for `CCOC(=O)C1CCCN(Cc2ccc(OC)c(OCc3ccccc3)c2)C1` (stereo not drawn) here?
A: inactive: -28.6%

Q: How did the inhibition turn out when `CCCCOC(=O)c1nnc(-c2ccccc2)o1` was run?
A: inconclusive: 24.1%

Q: For `O=C(NCCNc1ccc(Cl)cc1[N+](=O)[O-])c1ccccc1F`, which inhibition is on record?
A: inconclusive: 10.9%

Q: `Cc1ccc(C2=N/C(=C\c3cccs3)C(=O)N2Nc2ccccc2)cc1` was tested. Which inhibition did it give?
A: active: 50.6%

Q: `O=C(NC1CCCN(CCc2ccccc2)C1)c1c[nH]c2ccccc12` (stereo not drawn) was tested. Which inhibition did it give?
A: inconclusive: -12.6%

Q: With `O=C(NCc1cccc(Cl)c1)c1ccc(N2CC3CC(C2)c2cccc(=O)n2C3)c(NC(=O)c2cccnc2)c1` (stereo not drawn) as the molecule, how does the inhibition read?
A: inactive: 4.4%

Q: `O=C1C(Cl)=C(NCc2cccnc2)C(=O)c2ccccc21` was tested. Which inhibition did it give?
A: inconclusive: -0.1%

Q: How did the inhibition turn out when `O=[N+]([O-])c1ccc2nc(-c3ccccn3)[nH]c2c1` was run?
A: inconclusive: 41.5%

Q: Which inhibition does the source give for `CC(C)C(C)N(Cc1cccc(C(=O)O)c1)C(=O)c1ccc2ccccc2n1` (stereo not drawn) here?
A: inconclusive: 41.4%

Q: `O=C1c2ccccc2C(=O)c2c1cccc2-n1nnc2ccccc21` was tested. Which inhibition did it give?
A: inconclusive: -21.1%

Q: With `CCC(C)c1ccccc1OCC(=O)NN1C(=O)c2ccccc2C1=O` (stereo not drawn) as the molecule, how does the inhibition read?
A: inconclusive: -57.7%

Q: Which inhibition does the source give for `O=C(C#Cc1ccccc1)NCc1ccccc1F` here?
A: inconclusive: -16.8%

Q: Which inhibition does the source give for `C[C@H]1CN([C@@H](C)CO)C(=O)c2cc(NC(=O)C3CCCCC3)ccc2O[C@H]1CN(C)C(=O)Nc1ccc2c(c1)OCO2` here?
A: inactive: -6.3%

Q: For `c1ccc(CCn2nnnc2CN2CCCc3ccccc32)cc1`, which inhibition is on record?
A: inconclusive: -30.3%

Q: `CCC1(CC)C(=O)C2=C3C1[C@H](C(=O)OC)C=C(C(=O)OC)C[C@H]3[C@H]1C(=O)N(CC(=O)OC)C(=O)[C@H]1[C@H]2C` (stereo partly drawn) was tested. Which inhibition did it give?
A: inactive: 5.7%

Q: `Cc1ccc(C2(C)NC(=O)N(CC(=O)Nc3ccc(Cl)c(S(=O)(=O)N4CCCCC4)c3)C2=O)cc1` (stereo not drawn) was tested. Which inhibition did it give?
A: inconclusive: 14.1%

Q: For `Cc1ccc(C)c(Cn2nc3c4ccccc4n(Cc4ccccc4)cc-3c2=O)c1`, which inhibition is on record?
A: inconclusive: -29.5%

Q: `Cc1c(CCC(=O)O)c(=O)oc2cc3occ(-c4ccc(Br)cc4)c3cc12` was tested. Which inhibition did it give?
A: inconclusive: -5.7%

Q: With `Cc1cccc(/C=N/NC(=O)c2cc(C3CC3)nc3ccccc23)n1` as the molecule, how does the inhibition read?
A: inactive: -3.8%

Q: `Cc1nc(-c2ccc([N+](=O)[O-])cc2)c(-c2ccccc2)o1` was tested. Which inhibition did it give?
A: inconclusive: -3.8%

Q: Which inhibition does the source give for `C[n+]1cccc(C2C(C#N)=C(N)Oc3c2ccc2ccccc32)c1` (stereo not drawn) here?
A: inconclusive: -13.3%

Q: How did the inhibition turn out when `OC1(C#CCN2CCCC2)CCCCC1` was run?
A: inconclusive: 44%

Q: With `Cc1csc(NC(=O)c2oc3ccccc3c2C)n1` as the molecule, how does the inhibition read?
A: inconclusive: -15.6%

Q: For `Clc1ccccc1C1=CC(c2ccco2)n2ncnc2N1` (stereo not drawn), which inhibition is on record?
A: inconclusive: 49.6%

Q: For `COc1ccc(-c2csc(NC(=O)c3ccccc3F)c2C(=O)O)cc1`, which inhibition is on record?
A: inconclusive: -6.6%

Q: Which inhibition does the source give for `COc1ccc(C2C(C#N)=C(N)Oc3cccc(O)c32)cc1` (stereo not drawn) here?
A: inconclusive: 49.9%

Q: For `Cc1ccc(-c2nc3ccccc3c(=O)n2N)cc1`, which inhibition is on record?
A: inconclusive: -10.7%

Q: How did the inhibition turn out when `CC(C)c1ccc(/C=C/C(=O)NNC(=O)c2cccnc2)cc1` was run?
A: inconclusive: 0.3%

Q: `Cc1[nH]c2ccccc2c1C(=O)CSC(=S)N1CCOCC1` was tested. Which inhibition did it give?
A: inconclusive: 7.9%

Q: Which inhibition does the source give for `COc1ccc(S(=O)(=O)NCCOc2ccccc2)cc1OC` here?
A: inactive: 3.8%
